No constants are given. Whether binding was seen depends on the method and setting. Some binding calls cover weakened binding; strength is not graded here. Tags and fused reporters may be left off the sequences shown.
Columns and labels:
[1] = molecular target: (MBP-)Rio2 (S. cerevisiae) (UniProt P40160); assay: pull-down; 3 µM MBP-tagged bait and 5 µM untagged prey in 50 mM HEPES pH 7.5, 150 mM KCl; 10 min at room temperature, 1 h at 4°C with amylose resin; washed, eluted with 20 mM maltose; SDS-PAGE, Coomassie; both purified
[2] = molecular target: (MBP-)Dim1 (S. cerevisiae) (UniProt P41819); assay: as above
[3] = molecular target: T1, (MBP-)Nob1 (S. cerevisiae) (UniProt Q08444); assay: as above
T1 sequence: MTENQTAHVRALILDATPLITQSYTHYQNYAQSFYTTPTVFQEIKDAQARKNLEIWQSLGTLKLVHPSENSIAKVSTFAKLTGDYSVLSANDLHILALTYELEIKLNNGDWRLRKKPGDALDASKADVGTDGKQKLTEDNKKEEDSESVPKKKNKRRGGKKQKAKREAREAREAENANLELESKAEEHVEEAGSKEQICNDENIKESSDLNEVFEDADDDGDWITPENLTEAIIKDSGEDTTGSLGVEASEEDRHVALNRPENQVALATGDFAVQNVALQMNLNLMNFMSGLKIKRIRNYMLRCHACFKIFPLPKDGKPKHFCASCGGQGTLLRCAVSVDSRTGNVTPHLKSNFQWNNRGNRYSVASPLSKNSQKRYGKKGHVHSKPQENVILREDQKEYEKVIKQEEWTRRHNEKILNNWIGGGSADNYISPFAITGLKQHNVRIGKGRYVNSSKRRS

Amino acid sequences for entries named in this document (tags omitted).
UniProt P40160: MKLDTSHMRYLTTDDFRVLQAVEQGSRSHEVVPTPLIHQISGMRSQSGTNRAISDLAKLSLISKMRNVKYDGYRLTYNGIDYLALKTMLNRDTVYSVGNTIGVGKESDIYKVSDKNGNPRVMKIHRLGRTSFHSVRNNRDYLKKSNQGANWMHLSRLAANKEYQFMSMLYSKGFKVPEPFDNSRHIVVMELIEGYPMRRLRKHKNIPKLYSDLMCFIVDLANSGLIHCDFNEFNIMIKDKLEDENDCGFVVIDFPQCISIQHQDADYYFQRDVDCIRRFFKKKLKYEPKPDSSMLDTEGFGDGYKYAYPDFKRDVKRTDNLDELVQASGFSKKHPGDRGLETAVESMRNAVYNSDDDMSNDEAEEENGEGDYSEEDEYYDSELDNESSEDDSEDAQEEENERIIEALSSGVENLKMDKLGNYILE
UniProt P41819: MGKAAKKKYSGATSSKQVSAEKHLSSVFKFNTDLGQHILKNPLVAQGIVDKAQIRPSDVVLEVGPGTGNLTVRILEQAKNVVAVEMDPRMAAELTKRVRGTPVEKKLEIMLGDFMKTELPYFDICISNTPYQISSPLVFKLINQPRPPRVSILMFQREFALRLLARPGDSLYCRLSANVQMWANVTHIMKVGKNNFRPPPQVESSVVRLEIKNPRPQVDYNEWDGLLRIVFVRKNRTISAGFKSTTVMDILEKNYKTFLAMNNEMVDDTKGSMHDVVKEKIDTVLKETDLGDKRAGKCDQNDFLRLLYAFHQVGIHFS

[4] = molecular target: T2, (MBP-)Rps3 (S. cerevisiae), P05750; assay: pull-down; (MBP-)Rps3 as bait with untagged Ltv1 and Enp1 together (test for a ternary complex); amylose resin, SDS-PAGE; both purified; conditions: remark: other sources report otherwise
T2 chain: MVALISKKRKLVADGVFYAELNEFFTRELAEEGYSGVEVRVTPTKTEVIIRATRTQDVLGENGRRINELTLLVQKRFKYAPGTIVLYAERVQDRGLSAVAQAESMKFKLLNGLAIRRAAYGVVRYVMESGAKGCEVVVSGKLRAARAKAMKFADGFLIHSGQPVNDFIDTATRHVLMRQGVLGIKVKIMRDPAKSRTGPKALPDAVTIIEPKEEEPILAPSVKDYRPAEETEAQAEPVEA

[5] = molecular target: T2, (MBP-)Rps3 (S. cerevisiae), P05750; assay: condition: 5 µM untagged protein, 3 µM MBP-tagged protein; pull-down; 3 µM MBP-tagged bait and 5 µM untagged prey in 50 mM HEPES pH 7.5, 150 mM KCl; 10 min at room temperature, 1 h at 4°C with amylose resin; washed, eluted with 20 mM maltose; SDS-PAGE, Coomassie; both purified; conditions: remark: other sources report otherwise
[6] = molecular target: T3, (MBP-)Tsr1 (S. cerevisiae), Q07381; assay: as above; conditions: remark: other sources report otherwise
T3 chain: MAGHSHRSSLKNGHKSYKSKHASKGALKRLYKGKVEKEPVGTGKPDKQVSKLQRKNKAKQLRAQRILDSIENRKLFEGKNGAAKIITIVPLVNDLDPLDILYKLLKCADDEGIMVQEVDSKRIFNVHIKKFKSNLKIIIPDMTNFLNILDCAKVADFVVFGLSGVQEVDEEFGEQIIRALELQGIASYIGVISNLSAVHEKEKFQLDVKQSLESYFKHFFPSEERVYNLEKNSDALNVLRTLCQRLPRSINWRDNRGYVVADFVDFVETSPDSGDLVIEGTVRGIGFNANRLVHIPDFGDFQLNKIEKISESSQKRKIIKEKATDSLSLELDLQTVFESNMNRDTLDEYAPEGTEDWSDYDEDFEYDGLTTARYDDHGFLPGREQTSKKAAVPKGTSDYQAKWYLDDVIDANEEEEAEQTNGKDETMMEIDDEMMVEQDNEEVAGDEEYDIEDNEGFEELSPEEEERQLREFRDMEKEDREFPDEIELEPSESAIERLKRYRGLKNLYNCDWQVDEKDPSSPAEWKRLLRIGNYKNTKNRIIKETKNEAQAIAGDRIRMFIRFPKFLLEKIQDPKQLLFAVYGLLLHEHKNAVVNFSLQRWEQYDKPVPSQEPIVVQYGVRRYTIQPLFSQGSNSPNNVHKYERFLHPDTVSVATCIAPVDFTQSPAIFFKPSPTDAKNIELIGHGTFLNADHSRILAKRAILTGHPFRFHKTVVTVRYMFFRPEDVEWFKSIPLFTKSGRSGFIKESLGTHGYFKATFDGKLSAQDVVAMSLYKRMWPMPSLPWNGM

[7] = molecular target: (MBP-)Dim1 (S. cerevisiae), P41819; assay: as above; conditions: remark: other sources report otherwise

B1: Nob1 (untagged) (protein, UniProt Q08444 1-459)
chain: T1 sequence
**Q.** Which binding [1] does the source give for B1 here?
**A.** Its binding is “binds”.

B2: Ltv1 (untagged) (protein, UniProt P34078 1-463)
chain: MSKKFSSKNSQRYVVVHRPHDDPSFYDTDASAHVLVPVSNPNKTSPEADLRKKDVSSTKPKGRRAHVGEAALYGINFDDSEYDYTQHLKPIGLDPENSIFIASKGNEQKVEKKNIEDLFIEPKYRRDEIEKDDALPVFQRGMAKPEYLLHQQDTTDEIRGFKPDMNPALREVLEALEDEAYVVNDDVVVEDISKKTQLQGDNYGEEEKEDDIFAQLLGSGEAKDEDEFEDEFDEWDIDNVENFEDENYVKEMAQFDNIENLEDLENIDYQADVRRFQKDNSILEKHNSDDEFSNAGLDSVNPSEEEDVLGELPSIQDKSKTGKKKRKSRQKKGAMSDVSGFSMSSSAIARTETMTVLDDQYDQIINGYENYEEELEEDEEQNYQPFDMSAERSDFESMLDDFLDNYELESGGRKLAKKDKEIERLKEAADEVSKGKLSQRRNRERQEKKKLEKVTNTLSSLKF
**Q.** With B2 as the binder, how does the binding [2] read?
**A.** Its binding is “binds weakly”.

**Q.** And the binding [3]?
**A.** The binding was “binds weakly”.

B3: Ltv1 (untagged), P34078 1-463 (protein)
chain: B2 chain
**Q.** For B3, which binding [4] is on record?
**A.** Its binding is “no binding”.

**Q.** And the binding [5]?
**A.** Its binding is “no binding”.

B4: Enp1 (untagged), P38333 1-483 (protein)
chain: MARASSTKARKQRHDPLLKDLDAAQGTLKKINKKKLAQNDAANHDAANEEDGYIDSKASRKILQLAKEQQDEIEGEELAESERNKQFEARFTTMSYDDEDEDEDEDEEAFGEDISDFEPEGDYKEEEEIVEIDEEDAAMFEQYFKKSDDFNSLSGSYNLADKIMASIREKESQVEDMQDDEPLANEQNTSRGNISSGLKSGEGVALPEKVIKAYTTVGSILKTWTHGKLPKLFKVIPSLRNWQDVIYVTNPEEWSPHVVYEATKLFVSNLTAKESQKFINLILLERFRDNIETSEDHSLNYHIYRAVKKSLYKPSAFFKGFLFPLVETGCNVREATIAGSVLAKVSVPALHSSAALSYLLRLPFSPPTTVFIKILLDKKYALPYQTVDDCVYYFMRFRILDDGSNGEDATRVLPVIWHKAFLTFAQRYKNDITQDQRDFLLETVRQRGHKDIGPEIRRELLAGASREFVDPQEANDDLMIDVN
**Q.** Which binding [4] does the source give for B4 here?
**A.** Its binding is “no binding”.

**Q.** What about the binding [5] of the same binder?
**A.** The binding was “no binding”.

B5: Nob1 (untagged), Q08444 1-459 (protein)
chain: T1 sequence
**Q.** B5 was tested. Which binding [6] did it give?
**A.** Its binding is “no binding”.

B6: Dim2/Pno1 (untagged), Q99216 1-274 (protein)
chain: MVAPTALKKATVTPVSGQDGGSSRIIGINNTESIDEDDDDDVLLDDSDNNTAKEEVEGEEGSRKTHESKTVVVDDQGKPRFTSASKTQGNKIKFESRKIMVPPHRMTPLRNSWTKIYPPLVEHLKLQVRMNLKTKSVELRTNPKFTTDPGALQKGADFIKAFTLGFDLDDSIALLRLDDLYIETFEVKDVKTLTGDHLSRAIGRIAGKDGKTKFAIENATRTRIVLADSKIHILGGFTHIRMARESVVSLILGSPPGKVYGNLRTVASRLKERY
**Q.** With B6 as the binder, how does the binding [7] read?
**A.** The binding was “no binding”.

Source: article PMC3024409
